Values from PubChem BioAssay AID504786 (Drosophila RNAi Screening Center, 2011).
The deposit covers about 21,000 reagents; below is a random part of those that have a named target and a result. 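Primary screen; positive scores mean lost reporter signal, so the sign may be inverted from the usual convention.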 A plus sign joins genes that one reagent is predicted to hit. Further read-outs or replicates are left out here.

Assay: 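Fly genes required for HIF-dependent transcription when hypoxia is mimicked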 (primary screen)
System: Drosophila S2 cells with a stable HIF luciferase reporter
Reagents: long dsRNA against Drosophila genes, about 0.2 µg dsRNA per well of a 384-well plate
Timing: three days of knock-down, then 20 h of DFO before reading
Treatment: desferrioxamine (DFO) at 100 µM, an iron chelator that mimics hypoxia, for 20 h
Measurement: 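Firefly luciferase driven by the mouse ldh-a hypoxia-response element, measured after 20 h of 100 µM DFO; z-scores per plate, higher means more signal lost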
Scale: z-score: higher = stronger loss of HIF reporter signal

CG13168 [DRSC06295]
- z-score, replicate 1: -0.1

CG14420 [DRSC17917]
- z-score, replicate 1: -0.3

LeuRS (Leucyl-tRNA synthetase) [DRSC00581]
- z-score, replicate 1: -0.2

CG18507 [DRSC01334]
- z-score, replicate 1: -0.1

CG18507 [DRSC01914]
- z-score, replicate 1: -0.1

CG7101 [DRSC20023]
- z-score, replicate 1: -0.3

CG9899 [DRSC04597]
- z-score, replicate 1: -0.3

Sec61gamma (Sec61 gamma subunit) [DRSC19570]
- z-score, replicate 1: 2.4

Dred (Dctn1-related) [DRSC11057]
- z-score, replicate 1: -0.2

Dred (Dctn1-related) [DRSC11059]
- z-score, replicate 1: -0.7

niki (nimA-like kinase) [DRSC14285]
- z-score, replicate 1: 0

Vps60 (Vacuolar protein sorting 60) [DRSC10610]
- z-score, replicate 1: -0.1

CG10874 [DRSC00297]
- z-score, replicate 1: 0.2

CG4408 [DRSC15574]
- z-score, replicate 1: -0.2

su(w[a]) (suppressor of white-apricot) [DRSC18840]
- z-score, replicate 1: 0.5

Cyp6a20 (Cytochrome P450 6a20) [DRSC07380]
- z-score, replicate 1: -0.3

Pgm2b (Phosphoglucomutase 2b) [DRSC05978]
- z-score, replicate 1: -0.3

P5CDh1 (delta-1-Pyrroline-5-carboxylate dehydrogenase 1) [DRSC11801]
- z-score, replicate 1: -0.1

ssp2 (short spindle 2) [DRSC11052]
- z-score, replicate 1: -0.3

Prosalpha1R + Prosalpha1 [DRSC07515]
- z-score, replicate 1: 4.2

Ddr (Discoidin domain receptor) [DRSC00922]
- z-score, replicate 1: -0.4

Ddr (Discoidin domain receptor) [DRSC00923]
- z-score, replicate 1: -0.4

Ddr (Discoidin domain receptor) [DRSC02150]
- z-score, replicate 1: 0

Ddr (Discoidin domain receptor) [DRSC03229]
- z-score, replicate 1: -0.3

Ddr (Discoidin domain receptor) [DRSC03230]
- z-score, replicate 1: -0.2

mus101 (mutagen-sensitive 101) [DRSC19388]
- z-score, replicate 1: -0.1

CG15475 [DRSC02486]
- z-score, replicate 1: 0

MetRS-m (Methionyl-tRNA synthetase, mitochondrial) [DRSC16443]
- z-score, replicate 1: -0.3

MetRS-m (Methionyl-tRNA synthetase, mitochondrial) [DRSC16515]
- z-score, replicate 1: -0.4

Dab (Disabled) [DRSC11140]
- z-score, replicate 1: -0.4

PrBP (Prenyl-binding protein) [DRSC03189]
- z-score, replicate 1: -0.4

CG13933 [DRSC08402]
- z-score, replicate 1: -0.3

CG13287 [DRSC09961]
- z-score, replicate 1: -0.5

EMC7 (ER membrane protein complex subunit 7) [DRSC07162]
- z-score, replicate 1: -0.3

CG8051 [DRSC20077]
- z-score, replicate 1: -0.9

Urod (Uroporphyrinogen decarboxylase) [DRSC07569]
- z-score, replicate 1: 0.1

CG42366 [DRSC02760]
- z-score, replicate 1: -0.1

pho (pleiohomeotic) [DRSC17219]
- z-score, replicate 1: -0.3

ERp44 (Endoplasmic reticulum protein 44) [DRSC20215]
- z-score, replicate 1: -0.1

CG17752 [DRSC15262]
- z-score, replicate 1: -0.3

CG9300 [DRSC11064]
- z-score, replicate 1: 0.2

CG13026 [DRSC09906]
- z-score, replicate 1: -0.3

CG9628 [DRSC11082]
- z-score, replicate 1: -0.3

Trpgamma (Transient receptor potential cation channel gamma) [DRSC03626]
- z-score, replicate 1: -0.2

Asph (Aspartyl beta-hydroxylase) [DRSC06783]
- z-score, replicate 1: -0.3

Asph (Aspartyl beta-hydroxylase) [DRSC07171]
- z-score, replicate 1: -0.2

CG3679 [DRSC19346]
- z-score, replicate 1: -0.1

CG13737 [DRSC10064]
- z-score, replicate 1: 0.1

Sodh1 (Sorbitol dehydrogenase 1) [DRSC12605]
- z-score, replicate 1: -0.4

CG12301 [DRSC09875]
- z-score, replicate 1: 0.2

CG8701 [DRSC07237]
- z-score, replicate 1: -0.4

Part of the list above, set out differently.
{"target":"CG13737","DRSC id":"DRSC10064","z-score, replicate 1":0.1}
{"target":"Sodh1 (Sorbitol dehydrogenase 1)","DRSC id":"DRSC12605","z-score, replicate 1":-0.4}
